Data reported in patent US9125430B2, “Stable and bioavailable compositions of isomers of carotenoids for skin and hair” (Nestec S.A., priority 2006, dated 2015).
Some results were stated once for a whole list of compounds, not compound by compound. At least one compound was matched to its structure with a doubt left.

Assay: Stability of pure lycopene isomers in n-hexane during storage at room temperature
Assay type: physicochemical
Details: after 33 day storage in n-hexane, absence of light
Protocol: Pure 5-Z, 9-Z, 13-Z and all-E lycopene were isolated from isomerised tomato oleoresin (submitted to 1 hour heating), by collecting the fractions containing the corresponding peaks after HPLC separation (see below the experimental conditions). Peaks were collected during two consecutive HPLC runs and the corresponding fractions were pooled.
Amount of total lycopene was determined by reverse phase HPLC on a C18 precolumn (ODS Hypersil, 5 μm, 20×4 mm; Hewlett Packard, Geneva, Switzerland) and a C18 column (Nova pak, 3.9 μm i.d.×300 mm length, Millipore, Volketswil, Switzerland). […] The mobile phase flow rate was 1.5 mL/min. Lycopene isomer profiles were determined by normal phase HPLC according to the method described by Schierle et al. (1997). Food. Chem. 59: 459. Samples of isomerized oleoresins were dissolved in n-hexane containing 50 ppm BHT and spun at maximum speed in an Eppendorf Lab centrifuge. The resulting supernatants were immediately analyzed by HPLC. The HPLC system used was a 1100 series Hewlett-Packard model equipped with an ultraviolet-visible photodiode array detector. Data were simultaneously acquired at 470 nm, 464 nm, 346 nm and 294 nm. Samples (10 μl) were separated using a combination of three Nucleosil 300-5 columns (4 mm internal diameter×250 mm length, Macherey-Nagel). […] Flow rate was 0.8 mL/min. Lycopene Z-isomers were identified according to literature data.
Amounts of lycopene isomers were calculated based on surface areas of the HPLC peaks using the same extinction coefficient as the all-E lycopene. Therefore, the lycopene concentration in products containing Z-isomers is slightly underestimated since it is recognized that the extinction coefficients of Z-isomers are lower than that of the all-E isomer. Conditions for Stability Tests
Stability of lycopene isomers was investigated both in n-hexane and in a tomato oleoresin isomerized by 4 hour heating in ethyl acetate. […] Total lycopene concentration and lycopene isomer profiles were measured at various time intervals during the storage.

Fraction of the isomer transformed / converted into other isomers, less than 50%:
CC(C)=CCC/C(C)=C/C=C/C(C)=C\C=C\C(C)=C\C=C\C=C(C)\C=C\C=C(C)\C=C\C=C(/C)CCC=C(C)C [9-Z lycopene]
CC(C)=CCC\C(C)=C/C=C/C(C)=C/C=C/C(C)=C/C=C/C=C(C)/C=C/C=C(C)/C=C/C=C(\C)CCC=C(C)C [5-Z lycopene]
CC(C)=CCC/C(C)=C/C=C/C(C)=C/C=C/C(C)=C/C=C/C=C(C)/C=C/C=C(C)/C=C/C=C(\C)CCC=C(C)C [all-E lycopene]
